# Assay results taken from the supplement of paper PMC8728848.
# Some of the results follow.
# What was measured:
# Experiment in all cases: glycan array binding signal (z-score within array); higher = stronger binding
# Conditions in all cases: glycan notation: IUPAC condensed, linker removed
# [1] = biological target: Neu5Ac(a2-3)Gal(b1-3)GalNAc6S
# In short: (§1)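 From the Consortium for Functional Glycomics database, 3228 arrays were curated, keeping only those whose protein sequence was available. Binding is given as a within-array Z-score averaged across arrays sharing a protein sequence and across linkers. Negative Z-scores can be read as non-binding.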
# [2] = biological target: Neu5Ac(a2-3)Gal(b1-3)GlcNAc
# In short: as §1
# [3] = biological target: Neu5Ac(a2-3)Gal(b1-3)GlcNAc(b1-3)Gal(b1-3)GlcNAc
# In short: as §1
# [4] = biological target: Neu5Ac(a2-3)Gal(b1-3)GlcNAc(b1-3)Gal(b1-4)GlcNAc
# In short: as §1
# [5] = biological target: Neu5Ac(a2-3)Gal(b1-3)GlcNAc(b1-3)GalNAc
# In short: as §1
# [6] = biological target: Neu5Ac(a2-3)Gal(b1-3)GlcNAc6S
# In short: as §1
# [7] = biological target: Neu5Ac(a2-3)Gal(b1-3)[Fuc(a1-4)]GlcNAc
# In short: as §1
# [8] = biological target: Neu5Ac(a2-3)Gal(b1-3)[Fuc(a1-4)]GlcNAc(b1-3)Gal(b1-3)[Fuc(a1-4)]GlcNAc
# In short: as §1
# [9] = biological target: Neu5Ac(a2-3)Gal(b1-3)[Fuc(a1-4)]GlcNAc(b1-3)Gal(b1-4)[Fuc(a1-3)]GlcNAc
# In short: as §1
# [10] = biological target: Neu5Ac(a2-3)Gal(b1-3)[Neu5Ac(a2-3)Gal(b1-4)]GlcNAc
# In short: as §1
# [11] = biological target: Neu5Ac(a2-3)Gal(b1-3)[Neu5Ac(a2-6)]GalNAc
# In short: as §1
# [12] = biological target: Neu5Ac(a2-3)Gal(b1-4)Glc
# In short: as §1
# [13] = biological target: Neu5Ac(a2-3)Gal(b1-4)GlcNAc
# In short: as §1
# [14] = biological target: Neu5Ac(a2-3)Gal(b1-4)GlcNAc(b1-2)Man(a1-3)[GlcNAc(b1-2)Man(b1-4)GlcNAc(b1-2)Man(a1-6)]Man(b1-4)GlcNAc(b1-4)GlcNAc
# In short: as §1
# [15] = biological target: Neu5Ac(a2-3)Gal(b1-4)GlcNAc(b1-2)Man(a1-3)[Neu5Ac(a2-6)Gal(b1-4)GlcNAc(b1-2)Man(a1-6)]Man(b1-4)GlcNAc(b1-4)GlcNAc
# In short: as §1
# [16] = biological target: Neu5Ac(a2-3)Gal(b1-4)GlcNAc(b1-3)Gal
# In short: as §1
# [17] = biological target: Neu5Ac(a2-3)Gal(b1-4)GlcNAc(b1-3)Gal(b1-3)GlcNAc
# In short: as §1
# [18] = biological target: Neu5Ac(a2-3)Gal(b1-4)GlcNAc(b1-3)Gal(b1-4)GlcNAc
# In short: as §1
# [19] = biological target: Neu5Ac(a2-3)Gal(b1-4)GlcNAc(b1-3)Gal(b1-4)GlcNAc(b1-3)Gal(b1-4)GlcNAc
# In short: as §1
# [20] = biological target: Neu5Ac(a2-3)Gal(b1-4)GlcNAc(b1-3)Gal(b1-4)[Fuc(a1-3)]GlcNAc
# In short: as §1
# [21] = biological target: Neu5Ac(a2-3)Gal(b1-4)GlcNAc(b1-3)GalNAc
# In short: as §1
# [22] = biological target: Neu5Ac(a2-3)Gal(b1-4)GlcNAc(b1-6)[Gal(b1-3)]GalNAc
# In short: as §1
# [23] = biological target: Neu5Ac(a2-3)Gal(b1-4)GlcNAc(b1-6)[Neu5Ac(a2-3)Gal(b1-3)]GalNAc
# In short: as §1
# [24] = biological target: Neu5Ac(a2-3)Gal(b1-4)GlcNAc6S
# In short: as §1
# [25] = biological target: Neu5Ac(a2-3)Gal(b1-4)[Fuc(a1-3)]GlcNAc
# In short: as §1
# [26] = biological target: Neu5Ac(a2-3)Gal(b1-4)[Fuc(a1-3)]GlcNAc(b1-3)Gal
# In short: as §1
# [27] = biological target: Neu5Ac(a2-3)Gal(b1-4)[Fuc(a1-3)]GlcNAc(b1-3)Gal(b1-4)GlcNAc
# In short: as §1
# [28] = biological target: Neu5Ac(a2-3)Gal(b1-4)[Fuc(a1-3)]GlcNAc(b1-3)Gal(b1-4)[Fuc(a1-3)]GlcNAc(b1-3)Gal(b1-4)[Fuc(a1-3)]GlcNAc
# In short: as §1
# [29] = biological target: Neu5Ac(a2-3)Gal(b1-4)[Fuc(a1-3)]GlcNAc(b1-3)GalNAc
# In short: as §1
# [30] = biological target: Neu5Ac(a2-3)Gal(b1-4)[Fuc(a1-3)]GlcNAc(b1-6)[Gal(b1-3)]GalNAc
# In short: as §1
# [31] = biological target: Neu5Ac(a2-3)Gal(b1-4)[Fuc(a1-3)]GlcNAc6S
# In short: as §1
# [32] = biological target: Neu5Ac(a2-3)Gal6S(b1-4)GlcNAc
# In short: as §1
# [33] = biological target: Neu5Ac(a2-3)Gal6S(b1-4)[Fuc(a1-3)]GlcNAc
# In short: as §1
# [34] = biological target: Neu5Ac(a2-3)GalNAc
# In short: as §1
# [35] = biological target: Neu5Ac(a2-3)GalNAc(b1-4)GlcNAc
# In short: as §1
# [36] = biological target: Neu5Ac(a2-3)[GalNAc(b1-4)]Gal(b1-4)Glc
# In short: as §1
# [37] = biological target: Neu5Ac(a2-3)[GalNAc(b1-4)]Gal(b1-4)GlcNAc
# In short: as §1
binder,measurement,setting,value
"CD72 ectodomain (Homo sapiens), P21854 (protein) RYLQVSQQLQQTNRVLEVTNSSLRQQLRLKITQLGQSAEDLQGSRRELAQSQEALQVEQRAHQAAEGQLQACQADRQKTKETLQSEEQQRRALEQKLSNMENRLKPFFTCGSADTCCPSGWIMHQKSCFYISLTSKNWQESQKQCETLSSKLATFSEIYPQSHSYYFLNSLLPNGGSGNSYWTGLSSNKDWKLTDDTQRTRTYAQSSKCNKVHKTWSWWTLESESCRSSLPYICEMTAFRFPD",glycan array binding signal (z-score),[1],0.246
same,glycan array binding signal (z-score),[2],0.458
same,glycan array binding signal (z-score),[3],-1.33
same,glycan array binding signal (z-score),[4],1.86
same,glycan array binding signal (z-score),[5],-0.292
same,glycan array binding signal (z-score),[6],1.16
same,glycan array binding signal (z-score),[7],-1.11
same,glycan array binding signal (z-score),[8],0.691
same,glycan array binding signal (z-score),[9],-1.5
same,glycan array binding signal (z-score),[10],0.145
same,glycan array binding signal (z-score),[11],-0.387
same,glycan array binding signal (z-score),[12],0.447
same,glycan array binding signal (z-score),[13],-0.75
same,glycan array binding signal (z-score),[14],0.368
same,glycan array binding signal (z-score),[15],0.127
same,glycan array binding signal (z-score),[16],0.018
same,glycan array binding signal (z-score),[17],1.03
same,glycan array binding signal (z-score),[18],-0.934
same,glycan array binding signal (z-score),[19],-0.486
same,glycan array binding signal (z-score),[20],-0.484
same,glycan array binding signal (z-score),[21],1.21
same,glycan array binding signal (z-score),[22],-0.18
same,glycan array binding signal (z-score),[23],-0.389
same,glycan array binding signal (z-score),[24],0.59
same,glycan array binding signal (z-score),[25],-0.591
same,glycan array binding signal (z-score),[26],-0.755
same,glycan array binding signal (z-score),[27],0.41
same,glycan array binding signal (z-score),[28],1.73
same,glycan array binding signal (z-score),[29],1.77
same,glycan array binding signal (z-score),[30],-1.21
same,glycan array binding signal (z-score),[31],-0.142
same,glycan array binding signal (z-score),[32],-0.796
same,glycan array binding signal (z-score),[33],-0.268
same,glycan array binding signal (z-score),[34],-0.043
same,glycan array binding signal (z-score),[35],-0.397
same,glycan array binding signal (z-score),[36],0.769
same,glycan array binding signal (z-score),[37],0.096

# Some of the entries so far, bar-delimited.
binder | measurement | setting | value
CD72 ectodomain (Homo sapiens), P21854 (protein) RYLQVSQQLQQTNRVLEVTNSSLRQQLRLKITQLGQSAEDLQGSRRELAQSQEALQVEQRAHQAAEGQLQACQADRQKTKETLQSEEQQRRALEQKLSNMENRLKPFFTCGSADTCCPSGWIMHQKSCFYISLTSKNWQESQKQCETLSSKLATFSEIYPQSHSYYFLNSLLPNGGSGNSYWTGLSSNKDWKLTDDTQRTRTYAQSSKCNKVHKTWSWWTLESESCRSSLPYICEMTAFRFPD | glycan array binding signal (z-score) | [32] | -0.796
same | glycan array binding signal (z-score) | [33] | -0.268
